{"source": "paper PMC8384837", "settings_in_all_cases": "yeast three-hybrid, YBZ-1, SC-Leu-His + 0.5 mM 3-AT, 4 days", "key": {"[1]": {"target": "T1, PUM1 PUF domain R2-VFQ R3-THE R4-TFR N899V + Y900F + C935T + R936H + Q939E + N971T + H972F + Q975R (UniProt Q14671)", "T1 sequence": "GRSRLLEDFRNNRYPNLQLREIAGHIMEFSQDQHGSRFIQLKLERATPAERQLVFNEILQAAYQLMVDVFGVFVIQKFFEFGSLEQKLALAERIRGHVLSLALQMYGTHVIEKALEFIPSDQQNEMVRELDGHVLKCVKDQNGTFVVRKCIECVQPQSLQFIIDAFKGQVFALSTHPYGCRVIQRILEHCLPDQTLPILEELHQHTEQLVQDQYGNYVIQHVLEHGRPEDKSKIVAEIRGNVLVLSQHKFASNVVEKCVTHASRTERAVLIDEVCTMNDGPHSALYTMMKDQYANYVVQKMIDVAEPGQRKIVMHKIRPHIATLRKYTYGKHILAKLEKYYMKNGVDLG"}, "[2]": {"target": "T2, PUM1 PUF domain R3-THE R4-TFR R7-NPG C935T + R936H + Q939E + N971T + H972F + Q975R + S1079N + N1080P + E1083G (Homo sapiens) (UniProt Q14671)", "T2 sequence": "T1 sequence with V72N, F73Y, S252N, N253P, E256G"}, "[3]": {"target": "T3, PUM1 PUF domain R3-THE R4-TFR C935T + R936H + Q939E + N971T + H972F + Q975R (UniProt Q14671)", "T3 sequence": "T1 sequence with V72N, F73Y"}, "[4]": {"target": "T4, PUM1 PUF domain R5-PHQ R6-SWD C1007P + R1008H + N1043S + Y1044W + Q1047D (UniProt Q14671)", "T4 sequence": "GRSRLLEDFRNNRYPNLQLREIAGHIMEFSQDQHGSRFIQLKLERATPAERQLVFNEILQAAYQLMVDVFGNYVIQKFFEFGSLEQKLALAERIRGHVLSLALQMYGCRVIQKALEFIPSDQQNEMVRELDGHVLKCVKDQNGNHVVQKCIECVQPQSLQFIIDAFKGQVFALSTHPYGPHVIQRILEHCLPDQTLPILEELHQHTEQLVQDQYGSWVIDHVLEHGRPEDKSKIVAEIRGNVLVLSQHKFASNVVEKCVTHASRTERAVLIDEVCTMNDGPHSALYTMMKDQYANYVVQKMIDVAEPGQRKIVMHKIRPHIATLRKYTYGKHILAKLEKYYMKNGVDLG"}, "[5]": {"target": "T5, PUM1 PUF domain R6-SWD R7-NPG N1043S + Y1044W + Q1047D + S1079N + N1080P + E1083G (Homo sapiens) (UniProt Q14671)", "T5 sequence": "T4 sequence with P180C, H181R, S252N, N253P, E256G"}, "[6]": {"target": "T6, PUM1 PUF domain R3-THE R4-TFR R7-NPG C935T + R936H + Q939E + N971T + H972F + Q975R + S1079N + N1080P + E1083G (UniProt Q14671)", "T6 sequence": "T1 sequence with V72N, F73Y, S252N, N253P, E256G"}, "[7]": {"target": "T7, PUM1 PUF domain R6-SWD R7-NPG N1043S + Y1044W + Q1047D + S1079N + N1080P + E1083G (UniProt Q14671)", "T7 sequence": "T4 sequence with P180C, H181R, S252N, N253P, E256G"}}, "note": "Positions count from the first letter of the chain named. This is one part of the list. For some assays here: At the low end of the ranking the order means little. For some assays here: The source does not settle which construct or isoform was used.", "data": [{"sequence": "GGCUAGAACUAGUGGAUCCCCCGGCGCCCGGCGGCUCGAGCCCGGGUAAGCGGACAAAGUCUGCAUGCCGCCGGGCGCCAUGCCUGCAGGUCGACUCUAGAAAACAUG", "values": [{"measurement": "binding signal (log2 enrichment (interaction score))", "setting": "[1]", "result": -3.61}, {"measurement": "binding signal (log2 enrichment (interaction score))", "setting": "[2]", "result": -1.53}]}, {"sequence": "GGCUAGAACUAGUGGAUCCCCCGGCGCCCGGCGGCUCGAGCCCGGGUAAGAUGAAGAAGUCUGCAUGCCGCCGGGCGCCAUGCCUGCAGGUCGACUCUAGAAAACAUG", "values": [{"measurement": "binding signal (log2 enrichment (interaction score))", "setting": "[1]", "result": -6.38}, {"measurement": "binding signal (log2 enrichment (interaction score))", "setting": "[3]", "result": -6.8}, {"measurement": "binding signal (log2 enrichment (interaction score))", "setting": "[4]", "result": "< -7.88"}, {"measurement": "binding signal (log2 enrichment (interaction score))", "setting": "[5]", "result": -0.96}]}, {"sequence": "GGCUAGAACUAGUGGAUCCCCCGGCGCCCGGCGGCUCGAGCCCGGGUAAGUGCAGAACGUCUGCAUGCCGCCGGGCGCCAUGCCUGCAGGUCGACUCUAGAAAACAUG", "values": [{"measurement": "binding signal (log2 enrichment (interaction score))", "setting": "[1]", "result": -5.47}, {"measurement": "binding signal (log2 enrichment (interaction score))", "setting": "[3]", "result": "< -7.42"}, {"measurement": "binding signal (log2 enrichment (interaction score))", "setting": "[5]", "result": -1.66}]}, {"sequence": "GGCUAGAACUAGUGGAUCCCCCGGCGCCCGGCGGCUCGAGCCCGGGUAAGUGGUGUAUGUCUGCAUGCCGCCGGGCGCCAUGCCUGCAGGUCGACUCUAGAAAACAUG", "values": [{"measurement": "binding signal (log2 enrichment (interaction score))", "setting": "[1]", "result": -5.07}, {"measurement": "binding signal (log2 enrichment (interaction score))", "setting": "[2]", "result": -1.09}]}, {"sequence": "GGCUAGAACUAGUGGAUCCCCCGGCGCCCGGCGGCUCGAGCCCGGGUAAGUCAGAGGCGUCUGCAUGCCGCCGGGCGCCAUGCCUGCAGGUCGACUCUAGAAAACAUG", "values": [{"measurement": "binding signal (log2 enrichment (interaction score))", "setting": "[1]", "result": -5.64}, {"measurement": "binding signal (log2 enrichment (interaction score))", "setting": "[2]", "result": "< -1.32"}]}, {"sequence": "GGCUAGAACUAGUGGAUCCCCCGGCGCCCGGCGGCUCGAGCCCGGGUAAGGCGGGGUAGUCUGCAUGCCGCCGGGCGCCAUGCCUGCAGGUCGACUCUAGAAAACAUG", "values": [{"measurement": "binding signal (log2 enrichment (interaction score))", "setting": "[1]", "result": -5.66}, {"measurement": "binding signal (log2 enrichment (interaction score))", "setting": "[2]", "result": -1.14}]}, {"sequence": "GGCUAGAACUAGUGGAUCCCCCGGCGCCCGGCGGCUCGAGCCCGGGUAAGUAGACCGAGUCUGCAUGCCGCCGGGCGCCAUGCCUGCAGGUCGACUCUAGAAAACAUG", "values": [{"measurement": "binding signal (log2 enrichment (interaction score))", "setting": "[1]", "result": -3.58}, {"measurement": "binding signal (log2 enrichment (interaction score))", "setting": "[3]", "result": -7.43}, {"measurement": "binding signal (log2 enrichment (interaction score))", "setting": "[4]", "result": -7.8}]}, {"sequence": "GGCUAGAACUAGUGGAUCCCCCGGCGCCCGGCGGCUCGAGCCCGGGUAAGUCCCCUAAGUCUGCAUGCCGCCGGGCGCCAUGCCUGCAGGUCGACUCUAGAAAACAUG", "values": [{"measurement": "binding signal (log2 enrichment (interaction score))", "setting": "[1]", "result": -4.98}, {"measurement": "binding signal (log2 enrichment (interaction score))", "setting": "[2]", "result": -1.4}]}, {"sequence": "GGCUAGAACUAGUGGAUCCCCCGGCGCCCGGCGGCUCGAGCCCGGGUAAGUUGAUGACGUCUGCAUGCCGCCGGGCGCCAUGCCUGCAGGUCGACUCUAGAAAACAUG", "values": [{"measurement": "binding signal (log2 enrichment (interaction score))", "setting": "[1]", "result": -5.37}, {"measurement": "binding signal (log2 enrichment (interaction score))", "setting": "[6]", "result": -2.44}]}, {"sequence": "GGCUAGAACUAGUGGAUCCCCCGGCGCCCGGCGGCUCGAGCCCGGGUAAGGGGACAACGUCUGCAUGCCGCCGGGCGCCAUGCCUGCAGGUCGACUCUAGAAAACAUG", "values": [{"measurement": "binding signal (log2 enrichment (interaction score))", "setting": "[1]", "result": -5.89}, {"measurement": "binding signal (log2 enrichment (interaction score))", "setting": "[4]", "result": "< -7.73"}]}, {"sequence": "GGCUAGAACUAGUGGAUCCCCCGGCGCCCGGCGGCUCGAGCCCGGGUAAGUUGUAGGAGUCUGCAUGCCGCCGGGCGCCAUGCCUGCAGGUCGACUCUAGAAAACAUG", "values": [{"measurement": "binding signal (log2 enrichment (interaction score))", "setting": "[1]", "result": -5.29}, {"measurement": "binding signal (log2 enrichment (interaction score))", "setting": "[4]", "result": -6.94}]}, {"sequence": "GGCUAGAACUAGUGGAUCCCCCGGCGCCCGGCGGCUCGAGCCCGGGUAAGUUUCGAUGGUCUGCAUGCCGCCGGGCGCCAUGCCUGCAGGUCGACUCUAGAAAACAUG", "values": [{"measurement": "binding signal (log2 enrichment (interaction score))", "setting": "[1]", "result": -5.11}, {"measurement": "binding signal (log2 enrichment (interaction score))", "setting": "[2]", "result": -1.44}]}, {"sequence": "GGCUAGAACUAGUGGAUCCCCCGGCGCCCGGCGGCUCGAGCCCGGGUAAGUUGAACACGUCUGCAUGCCGCCGGGCGCCAUGCCUGCAGGUCGACUCUAGAAAACAUG", "values": [{"measurement": "binding signal (log2 enrichment (interaction score))", "setting": "[1]", "result": -5.34}, {"measurement": "binding signal (log2 enrichment (interaction score))", "setting": "[2]", "result": -1.76}, {"measurement": "binding signal (log2 enrichment (interaction score))", "setting": "[4]", "result": -9.09}, {"measurement": "binding signal (log2 enrichment (interaction score))", "setting": "[5]", "result": -1.71}]}, {"sequence": "GGCUAGAACUAGUGGAUCCCCCGGCGCCCGGCGGCUCGAGCCCGGGUAAGUUGCAAAGGUCUGCAUGCCGCCGGGCGCCAUGCCUGCAGGUCGACUCUAGAAAACAUG", "values": [{"measurement": "binding signal (log2 enrichment (interaction score))", "setting": "[1]", "result": -5.52}, {"measurement": "binding signal (log2 enrichment (interaction score))", "setting": "[2]", "result": "< -1.37"}, {"measurement": "binding signal (log2 enrichment (interaction score))", "setting": "[7]", "result": -2.53}]}, {"sequence": "GGCUAGAACUAGUGGAUCCCCCGGCGCCCGGCGGCUCGAGCCCGGGUAAGUUUUCGCGGUCUGCAUGCCGCCGGGCGCCAUGCCUGCAGGUCGACUCUAGAAAACAUG", "values": [{"measurement": "binding signal (log2 enrichment (interaction score))", "setting": "[1]", "result": -5.45}, {"measurement": "binding signal (log2 enrichment (interaction score))", "setting": "[6]", "result": -2.3}]}, {"sequence": "GGCUAGAACUAGUGGAUCCCCCGGCGCCCGGCGGCUCGAGCCCGGGUAAGAGCGCGAAGUCUGCAUGCCGCCGGGCGCCAUGCCUGCAGGUCGACUCUAGAAAACAUG", "values": [{"measurement": "binding signal (log2 enrichment (interaction score))", "setting": "[1]", "result": -5.12}, {"measurement": "binding signal (log2 enrichment (interaction score))", "setting": "[6]", "result": -2.25}]}, {"sequence": "GGCUAGAACUAGUGGAUCCCCCGGCGCCCGGCGGCUCGAGCCCGGGUAAGUGUUCGUAGUCUGCAUGCCGCCGGGCGCCAUGCCUGCAGGUCGACUCUAGAAAACAUG", "values": [{"measurement": "binding signal (log2 enrichment (interaction score))", "setting": "[1]", "result": -5.03}, {"measurement": "binding signal (log2 enrichment (interaction score))", "setting": "[2]", "result": "< -0.99"}, {"measurement": "binding signal (log2 enrichment (interaction score))", "setting": "[4]", "result": -7.68}]}, {"sequence": "GGCUAGAACUAGUGGAUCCCCCGGCGCCCGGCGGCUCGAGCCCGGGUAAGAUUACGUCGUCUGCAUGCCGCCGGGCGCCAUGCCUGCAGGUCGACUCUAGAAAACAUG", "values": [{"measurement": "binding signal (log2 enrichment (interaction score))", "setting": "[1]", "result": -5.29}, {"measurement": "binding signal (log2 enrichment (interaction score))", "setting": "[6]", "result": -2.51}]}]}
